Some of the results follow.
Assays:
Test in all cases: log2 fold change, soluble protein after heating vs DMSO (PISA); higher = thermal stabilisation; K562 cells, 10 uM, 30 min; active = over 0.2 and 3.5 SD of the protein, either way, in both replicates (recomputed)
[1] = compound: Cc1ccc(NC(=O)c2ccc(CN3CC[C@H](N(C)C)C3)c(C(F)(F)F)c2)cc1Nc1nccc(-c2cncnc2)n1 [bafetinib]
Summary of the method: (§1)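 For each measurement, 10 μM compound was applied for 30 min to K562 cells at 2×10^6 cells/mL. Aliquots were heated for 3 min across 48°C-58°C, pooled, and extracted in PBS with 0.5% NP-40 at 4°C; the supernatant after 21,000xg for 90 min was soluble protein. This was quantified by TMTpro 16plex LC-MS/MS with channel sums equalised, and thermal stability was reported relative to control samples from duplicates, on a log2 fold-change scale.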

By UniProt entry, the sequences of proteins in these tests, tags left out. Where a name states a change or a piece, a line headed by the entry shows the natural chain unless it says otherwise.
UniProt Q6EEV4: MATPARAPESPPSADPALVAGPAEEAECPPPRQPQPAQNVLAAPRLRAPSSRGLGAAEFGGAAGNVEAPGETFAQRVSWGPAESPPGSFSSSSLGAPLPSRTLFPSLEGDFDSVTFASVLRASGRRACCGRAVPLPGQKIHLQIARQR
UniProt P05423: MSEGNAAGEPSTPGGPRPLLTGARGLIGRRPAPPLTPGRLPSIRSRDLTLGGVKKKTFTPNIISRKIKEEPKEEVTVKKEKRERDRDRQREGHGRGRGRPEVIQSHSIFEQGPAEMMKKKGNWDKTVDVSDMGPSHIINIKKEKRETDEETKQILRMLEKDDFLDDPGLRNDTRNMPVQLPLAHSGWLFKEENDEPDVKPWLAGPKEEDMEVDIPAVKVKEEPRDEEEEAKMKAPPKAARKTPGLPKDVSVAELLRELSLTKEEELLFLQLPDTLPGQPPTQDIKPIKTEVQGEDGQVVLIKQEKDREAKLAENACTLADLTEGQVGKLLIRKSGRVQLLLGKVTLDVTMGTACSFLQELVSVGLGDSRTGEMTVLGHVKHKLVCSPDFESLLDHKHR
UniProt Q8WVV4: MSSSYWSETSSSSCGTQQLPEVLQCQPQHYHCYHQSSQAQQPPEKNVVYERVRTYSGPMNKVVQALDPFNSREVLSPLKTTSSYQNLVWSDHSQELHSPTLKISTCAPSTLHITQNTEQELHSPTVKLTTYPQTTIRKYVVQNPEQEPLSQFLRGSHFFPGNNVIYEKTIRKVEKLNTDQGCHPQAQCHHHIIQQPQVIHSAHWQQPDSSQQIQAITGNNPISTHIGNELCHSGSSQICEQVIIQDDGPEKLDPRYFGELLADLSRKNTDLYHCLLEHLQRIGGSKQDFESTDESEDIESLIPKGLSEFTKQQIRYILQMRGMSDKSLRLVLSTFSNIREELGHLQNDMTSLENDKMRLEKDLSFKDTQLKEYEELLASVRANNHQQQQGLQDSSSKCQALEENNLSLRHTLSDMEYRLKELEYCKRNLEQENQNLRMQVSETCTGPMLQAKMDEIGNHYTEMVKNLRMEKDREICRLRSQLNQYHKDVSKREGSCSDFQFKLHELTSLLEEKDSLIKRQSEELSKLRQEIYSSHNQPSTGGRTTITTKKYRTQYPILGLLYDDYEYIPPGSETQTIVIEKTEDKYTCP
UniProt Q8IY26: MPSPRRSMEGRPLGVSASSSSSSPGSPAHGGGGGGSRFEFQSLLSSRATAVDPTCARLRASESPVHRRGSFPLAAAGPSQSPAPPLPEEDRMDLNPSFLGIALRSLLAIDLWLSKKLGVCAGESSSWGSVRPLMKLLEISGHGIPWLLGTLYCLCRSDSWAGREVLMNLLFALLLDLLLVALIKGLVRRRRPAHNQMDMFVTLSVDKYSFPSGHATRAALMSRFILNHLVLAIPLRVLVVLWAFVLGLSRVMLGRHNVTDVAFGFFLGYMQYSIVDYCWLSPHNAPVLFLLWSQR
UniProt A8CG34, whole entry, looked up: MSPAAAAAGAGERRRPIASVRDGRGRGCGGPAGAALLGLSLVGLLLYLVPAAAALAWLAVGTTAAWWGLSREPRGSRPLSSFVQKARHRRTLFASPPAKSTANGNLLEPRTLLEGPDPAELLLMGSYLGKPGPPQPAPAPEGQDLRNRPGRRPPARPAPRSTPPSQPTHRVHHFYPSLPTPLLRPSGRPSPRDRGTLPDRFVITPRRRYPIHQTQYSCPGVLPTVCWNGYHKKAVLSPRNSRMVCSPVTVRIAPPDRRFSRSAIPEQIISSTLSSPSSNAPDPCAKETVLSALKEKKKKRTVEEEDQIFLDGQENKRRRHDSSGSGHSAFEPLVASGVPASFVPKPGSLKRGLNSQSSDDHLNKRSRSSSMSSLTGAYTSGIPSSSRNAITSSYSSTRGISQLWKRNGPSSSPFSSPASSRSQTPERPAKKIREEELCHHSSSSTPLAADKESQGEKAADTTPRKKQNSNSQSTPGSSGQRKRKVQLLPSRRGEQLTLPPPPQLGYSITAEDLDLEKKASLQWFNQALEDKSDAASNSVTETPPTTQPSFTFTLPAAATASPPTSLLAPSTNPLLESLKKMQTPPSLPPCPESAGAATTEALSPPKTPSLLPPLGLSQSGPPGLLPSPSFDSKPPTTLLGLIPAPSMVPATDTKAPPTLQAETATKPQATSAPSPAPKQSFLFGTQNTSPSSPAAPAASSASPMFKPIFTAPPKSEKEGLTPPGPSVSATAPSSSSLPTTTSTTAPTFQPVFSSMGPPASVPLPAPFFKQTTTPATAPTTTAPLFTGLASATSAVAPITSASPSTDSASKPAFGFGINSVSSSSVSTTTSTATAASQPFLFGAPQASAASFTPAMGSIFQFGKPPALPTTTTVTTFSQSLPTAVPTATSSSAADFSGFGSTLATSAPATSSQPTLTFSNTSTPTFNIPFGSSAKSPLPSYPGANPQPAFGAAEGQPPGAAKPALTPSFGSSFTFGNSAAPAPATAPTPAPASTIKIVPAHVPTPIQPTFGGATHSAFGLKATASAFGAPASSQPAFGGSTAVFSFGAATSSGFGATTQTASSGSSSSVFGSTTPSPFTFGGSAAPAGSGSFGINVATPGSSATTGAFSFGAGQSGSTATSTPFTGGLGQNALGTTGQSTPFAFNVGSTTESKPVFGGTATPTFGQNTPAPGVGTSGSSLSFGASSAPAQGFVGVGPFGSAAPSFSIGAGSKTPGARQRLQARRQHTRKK
UniProt Q04941: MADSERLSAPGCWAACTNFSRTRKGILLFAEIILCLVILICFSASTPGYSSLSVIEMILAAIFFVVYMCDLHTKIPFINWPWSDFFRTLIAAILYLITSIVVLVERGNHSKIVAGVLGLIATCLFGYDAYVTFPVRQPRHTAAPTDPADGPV
UniProt P62937, whole entry, looked up: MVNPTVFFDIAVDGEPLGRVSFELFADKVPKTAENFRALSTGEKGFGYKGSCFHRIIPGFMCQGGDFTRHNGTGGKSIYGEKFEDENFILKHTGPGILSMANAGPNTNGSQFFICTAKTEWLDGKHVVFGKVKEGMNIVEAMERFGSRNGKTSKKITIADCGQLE
UniProt Q9H2H8: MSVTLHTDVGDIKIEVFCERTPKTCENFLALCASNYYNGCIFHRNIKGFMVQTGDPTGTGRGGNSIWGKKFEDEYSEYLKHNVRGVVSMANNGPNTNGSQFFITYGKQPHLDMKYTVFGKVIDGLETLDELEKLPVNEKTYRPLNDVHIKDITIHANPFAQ
UniProt Q9UKY4: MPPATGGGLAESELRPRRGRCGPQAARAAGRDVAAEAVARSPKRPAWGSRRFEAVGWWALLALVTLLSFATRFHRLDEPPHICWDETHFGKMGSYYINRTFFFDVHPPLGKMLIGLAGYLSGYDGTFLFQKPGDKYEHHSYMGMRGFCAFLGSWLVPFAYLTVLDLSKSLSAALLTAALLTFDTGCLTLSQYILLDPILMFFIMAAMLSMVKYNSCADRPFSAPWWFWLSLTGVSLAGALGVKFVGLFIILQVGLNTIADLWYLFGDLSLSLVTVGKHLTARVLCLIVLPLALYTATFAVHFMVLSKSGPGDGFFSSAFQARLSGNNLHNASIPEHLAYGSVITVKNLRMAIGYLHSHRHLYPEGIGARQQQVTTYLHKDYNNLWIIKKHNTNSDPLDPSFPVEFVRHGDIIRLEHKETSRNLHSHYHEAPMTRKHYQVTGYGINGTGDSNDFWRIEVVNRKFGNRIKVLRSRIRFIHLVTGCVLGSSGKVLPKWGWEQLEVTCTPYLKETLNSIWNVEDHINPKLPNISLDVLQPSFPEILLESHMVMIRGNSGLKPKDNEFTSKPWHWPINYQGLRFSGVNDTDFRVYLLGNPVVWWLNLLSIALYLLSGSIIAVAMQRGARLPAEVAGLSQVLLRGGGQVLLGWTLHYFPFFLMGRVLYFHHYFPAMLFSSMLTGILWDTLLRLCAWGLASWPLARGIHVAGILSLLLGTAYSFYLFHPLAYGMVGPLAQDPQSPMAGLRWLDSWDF
UniProt Q7Z3K3: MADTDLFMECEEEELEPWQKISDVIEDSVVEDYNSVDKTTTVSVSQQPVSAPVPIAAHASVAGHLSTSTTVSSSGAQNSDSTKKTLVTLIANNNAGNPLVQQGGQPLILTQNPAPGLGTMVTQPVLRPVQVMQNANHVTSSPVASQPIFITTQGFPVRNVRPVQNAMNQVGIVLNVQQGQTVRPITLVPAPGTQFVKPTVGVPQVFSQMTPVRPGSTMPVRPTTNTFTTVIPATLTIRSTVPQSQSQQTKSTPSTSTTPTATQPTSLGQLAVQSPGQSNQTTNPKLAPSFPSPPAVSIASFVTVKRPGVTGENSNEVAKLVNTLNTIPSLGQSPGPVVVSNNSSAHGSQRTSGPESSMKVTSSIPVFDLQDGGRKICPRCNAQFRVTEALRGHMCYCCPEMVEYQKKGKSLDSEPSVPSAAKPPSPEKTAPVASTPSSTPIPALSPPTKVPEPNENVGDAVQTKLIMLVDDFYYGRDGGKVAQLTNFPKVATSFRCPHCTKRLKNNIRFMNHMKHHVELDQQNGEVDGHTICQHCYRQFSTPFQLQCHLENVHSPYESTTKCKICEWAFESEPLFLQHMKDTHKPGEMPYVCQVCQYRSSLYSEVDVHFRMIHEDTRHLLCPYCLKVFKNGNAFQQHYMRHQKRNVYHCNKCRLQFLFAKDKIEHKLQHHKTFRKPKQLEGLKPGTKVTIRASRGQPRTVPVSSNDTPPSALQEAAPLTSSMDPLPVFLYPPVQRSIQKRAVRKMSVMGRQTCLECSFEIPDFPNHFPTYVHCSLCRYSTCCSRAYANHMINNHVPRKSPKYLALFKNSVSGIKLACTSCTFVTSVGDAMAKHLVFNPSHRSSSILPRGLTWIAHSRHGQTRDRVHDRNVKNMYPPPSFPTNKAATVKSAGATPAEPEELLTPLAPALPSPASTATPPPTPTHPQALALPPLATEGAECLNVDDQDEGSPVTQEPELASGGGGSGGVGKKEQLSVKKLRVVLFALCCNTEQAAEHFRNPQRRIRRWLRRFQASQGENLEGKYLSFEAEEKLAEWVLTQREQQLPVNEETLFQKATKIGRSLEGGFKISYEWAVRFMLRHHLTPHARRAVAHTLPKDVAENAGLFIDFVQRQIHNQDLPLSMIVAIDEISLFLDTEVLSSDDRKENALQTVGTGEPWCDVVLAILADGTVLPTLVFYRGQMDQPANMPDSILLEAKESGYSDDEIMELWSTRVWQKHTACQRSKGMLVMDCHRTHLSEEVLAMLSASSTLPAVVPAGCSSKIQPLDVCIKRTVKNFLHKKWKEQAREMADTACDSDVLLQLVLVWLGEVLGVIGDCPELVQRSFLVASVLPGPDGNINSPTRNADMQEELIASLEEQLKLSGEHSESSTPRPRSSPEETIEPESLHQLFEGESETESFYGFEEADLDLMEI
UniProt P11086: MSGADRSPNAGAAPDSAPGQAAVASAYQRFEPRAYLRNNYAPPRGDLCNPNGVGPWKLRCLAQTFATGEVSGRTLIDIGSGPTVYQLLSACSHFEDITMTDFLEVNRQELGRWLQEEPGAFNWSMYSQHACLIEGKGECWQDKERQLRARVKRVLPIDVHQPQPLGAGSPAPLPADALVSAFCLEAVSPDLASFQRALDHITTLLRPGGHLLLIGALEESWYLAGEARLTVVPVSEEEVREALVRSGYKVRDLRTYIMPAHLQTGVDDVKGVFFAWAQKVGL
UniProt O00592: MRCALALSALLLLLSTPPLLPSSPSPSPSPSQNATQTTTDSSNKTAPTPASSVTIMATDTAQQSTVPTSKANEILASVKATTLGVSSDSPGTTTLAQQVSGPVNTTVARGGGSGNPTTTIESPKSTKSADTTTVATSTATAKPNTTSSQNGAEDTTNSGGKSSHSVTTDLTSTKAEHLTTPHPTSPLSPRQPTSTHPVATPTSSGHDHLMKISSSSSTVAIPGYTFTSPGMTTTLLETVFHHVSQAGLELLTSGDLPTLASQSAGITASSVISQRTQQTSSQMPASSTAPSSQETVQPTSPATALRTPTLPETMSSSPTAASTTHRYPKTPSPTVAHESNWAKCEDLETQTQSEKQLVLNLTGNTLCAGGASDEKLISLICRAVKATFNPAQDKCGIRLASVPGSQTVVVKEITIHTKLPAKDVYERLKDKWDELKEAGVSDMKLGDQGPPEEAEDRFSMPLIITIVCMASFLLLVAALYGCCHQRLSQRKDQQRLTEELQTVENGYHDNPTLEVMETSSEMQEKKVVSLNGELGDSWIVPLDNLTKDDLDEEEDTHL

[2] = compound: Cc1cn(-c2cc(NC(=O)c3ccc(C)c(Nc4nccc(-c5cccnc5)n4)c3)cc(C(F)(F)F)c2)cn1 [nilotinib]
Summary of the method: as §1

[3] = compound: Cc1nc(Nc2n[nH]c3c2CN(C(=O)N[C@H](CN(C)C)c2ccccc2)C3(C)C)c2sccc2n1
Summary of the method: as §1

[4] = compound: Cc1nc(Nc2ncc(C(=O)Nc3c(C)cccc3Cl)s2)cc(N2CCN(CCO)CC2)n1 [dasatinib]
Summary of the method: as §1

[5] = compound: Cc1ncc(-c2ccnc(Nc3ccc(S(C)(=O)=O)cc3)n2)n1C(C)C
Summary of the method: as §1

[6] = compound: Cn1cc(-c2ccc3c(c2)CCN3C(=O)Cc2cccc(C(F)(F)F)c2)c2c(N)ncnc21
Summary of the method: as §1

[7] = compound: Cn1cncc1[C@@](N)(c1ccc(Cl)cc1)c1ccc2c(c1)c(-c1cccc(Cl)c1)cc(=O)n2C [tipifarnib]
Summary of the method: as §1

[8] = compound: FC(F)(F)c1ccc(/C=C/c2nc(COc3ccc(CCCCn4ccnn4)cc3)co2)cc1 [mubritinib]
Summary of the method: as §1

[9] = compound: NC(=O)Nc1cc(-c2cccc(F)c2)sc1C(=O)N[C@H]1CCCNC1
Summary of the method: as §1

[10] = compound: NC(=O)c1cnc(N[C@@H]2CCCC[C@@H]2N)nc1Nc1cccc(-n2nccn2)c1
Summary of the method: as §1

[11] = compound: NC1(c2ccc(-c3nc4ccn5c(=O)[nH]nc5c4cc3-c3ccccc3)cc2)CCC1
Summary of the method: as §1

[12] = compound: NCC(=O)Nc1ccc(-n2nc(C(F)(F)F)cc2-c2ccc3c(ccc4ccccc43)c2)cc1
Summary of the method: as §1

[13] = compound: Nc1ccccc1NC(=O)c1ccc(CNC(=O)OCc2cccnc2)cc1 [entinostat]
Summary of the method: as §1

[14] = compound: O=C(CCCCCCNC(=O)c1cnc(N(c2ccccc2)c2ccccc2Cl)nc1)NO [citarinostat]
Summary of the method: as §1

[15] = compound: O=C(O)c1ccc2c(c1)nc(Nc1cccc(Cl)c1)c1ccncc12 [silmitasertib]
Summary of the method: as §1

[16] = compound: O=C1NC(=O)C(c2cnc3ccccn23)=C1c1cn2c3c(cc(F)cc13)CN(C(=O)N1CCCCC1)CC2
Summary of the method: as §1

[17] = compound: c1cc(OCCN2CCCCC2)cc(-c2n[nH]c3ccc(-c4nnc[nH]4)cc23)c1
Summary of the method: as §1

[18] = compound: Cc1cccc(CC(=O)N2CCc3c2ccc(-c2cn(C)c4ncnc(N)c24)c3F)n1
Summary of the method: as §1

[19] = compound: Cn1cc(-c2ccc3nnc(C(F)(F)c4ccc5ncccc5c4)n3n2)cn1
Summary of the method: as §1

[20] = compound: O=C(CCCCCCC(=O)Nc1ccccc1)NO [vorinostat]
Summary of the method: as §1

Measured: log2 fold change

POLR2M (UniProt Q6EEV4)
inactive: [1] -0.215 | [2] 0.107 | [3] -0.016 | [4] -0.003 | [5] -0.022 | [6] 0.135 | [7] -0.095 | [8] 0.035 | [9] 0.027 | [10] -0.09 | [11] -0.065 | [12] -0.056 | [13] -0.148 | [14] 0.029 | [15] 0.03 | [16] -0.122 | [17] -0.009

POLR3D (UniProt P05423)
inactive: [1] -0.052 | [18] 0.044 | [2] 0.023 | [3] -0.125 | [4] 1.17 | [5] 0.057 | [6] -0.082 | [19] 0.046 | [7] 0.018 | [8] -0.072 | [9] -0.061 | [11] -0.115 | [12] -0.028 | [13] 0.03 | [20] 0.158 | [15] 0.078 | [16] 0.032
active: [10] 1.51

POF1B isoform 1 (UniProt Q8WVV4)
inactive: [1] 0.58 | [2] -0.379 | [3] 0.015 | [4] -0.561 | [5] -0.188 | [8] -0.163 | [11] -0.033 | [12] 0.313 | [14] -0.398 | [15] 0.391 | [17] 0.838

PLPP6 (UniProt Q8IY26)
inactive: [1] 0.015 | [18] 0.054 | [2] 0 | [3] 0.085 | [4] 0.076 | [5] -0.188 | [6] -0.197 | [19] -0.015 | [7] -0.287 | [8] -0.017 | [9] -0.002 | [10] 0.136 | [11] -0.099 | [12] 0.135 | [13] 0.067 | [20] 0.04 | [15] -0.009 | [16] -0.058

PLG (UniProt P00747)
inactive: [1] 0.043 | [18] -0.049 | [2] -0.176 | [3] 0.099 | [4] 0 | [5] 0.109 | [6] 0.222 | [7] -0.004 | [9] -0.075 | [10] -0.062 | [12] 0.151 | [13] -0.025 | [20] -0.008

POM121C (UniProt A8CG34)
inactive: [1] 0.015 | [2] 0.191 | [3] 0.092 | [5] -0.162 | [19] -0.066 | [8] -0.129 | [9] 0.187 | [10] -0.013 | [11] -0.071 | [13] -0.035 | [15] -0.152

PLP2 (UniProt Q04941)
inactive: [1] -0.054 | [18] 0.067 | [2] 0.04 | [3] 0.013 | [4] -0.017 | [5] 0.073 | [6] 0.012 | [7] 0.134 | [8] 0.111 | [9] -0.086 | [10] 0.133 | [11] 0.179 | [12] 0.35 | [13] -0.036 | [20] -0.064 | [14] 0.007 | [15] -0.05 | [16] -0.251 | [17] -0.063

POLR2C (UniProt P19387)
active: [5] 0.3
inactive: [1] 0.012 | [2] -0.042 | [3] 0.073 | [4] -0.031 | [6] 0.003 | [19] -0.06 | [7] -0.081 | [8] -0.097 | [9] -0.046 | [10] -0.026 | [11] -0.131 | [12] -0.196 | [13] -0.031 | [14] 0.017 | [15] 0.118 | [16] -0.023 | [17] -0.195

PPIA isoform 2 (UniProt P62937)
inactive: [1] 0.026 | [18] -0.074 | [2] -0.297 | [3] 0.026 | [4] 0.123 | [5] -0.146 | [6] -0.061 | [19] 0.001 | [7] 0.044 | [8] 0.14 | [10] -0.288 | [11] -0.253 | [12] -0.306 | [20] 0.024 | [14] -0.105 | [15] 0.134 | [16] -0.049 | [17] -0.068

PPIL3 isoform 2 (UniProt Q9H2H8)
inactive: [1] -0.05 | [18] 0.039 | [2] 0 | [3] 0.106 | [4] 0.023 | [5] -0.01 | [19] 0.074 | [7] -0.106 | [9] 0.106 | [10] -0.089 | [12] 0.043 | [13] 0.071 | [20] 0.029 | [14] 0.19 | [16] -0.136 | [17] -0.151

POMT2 (UniProt Q9UKY4)
inactive: [1] 0.125 | [4] -0.045 | [6] -0.079 | [19] 0.006 | [7] 0.147 | [10] -0.054 | [12] 0.041 | [14] 0.151 | [17] -0.12

Copied from above (2 entries):
POLR2C (UniProt P19387)
active: [5] 0.3
inactive: [1] 0.012 | [2] -0.042 | [3] 0.073 | [4] -0.031 | [6] 0.003 | [19] -0.06 | [7] -0.081 | [8] -0.097 | [9] -0.046 | [10] -0.026 | [11] -0.131 | [12] -0.196 | [13] -0.031 | [14] 0.017 | [15] 0.118 | [16] -0.023 | [17] -0.195

PPIA isoform 2 (UniProt P62937)
inactive: [1] 0.026 | [18] -0.074 | [2] -0.297 | [3] 0.026 | [4] 0.123 | [5] -0.146 | [6] -0.061 | [19] 0.001 | [7] 0.044 | [8] 0.14 | [10] -0.288 | [11] -0.253 | [12] -0.306 | [20] 0.024 | [14] -0.105 | [15] 0.134 | [16] -0.049 | [17] -0.068

The listing continues.

POGZ (UniProt Q7Z3K3)
inactive: [18] 0.174 | [4] -0.318 | [6] 0.072 | [19] 0.061 | [7] -0.124 | [9] 0.009 | [10] 0.167 | [12] -0.028 | [13] -0.031 | [20] -0.186 | [14] -0.206 | [16] -0.114
active: [17] -0.483

POT1 (UniProt Q9NUX5)
inactive: [1] 0.006 | [2] -0.088 | [3] -0.02 | [5] 0.025 | [19] 0.134 | [8] -0.123 | [9] -0.068 | [11] 0.013 | [13] -0.028 | [15] -0.077 | [16] 0.103

PNMT (UniProt P11086)
inactive: [4] 0.029 | [6] 0.152 | [7] -0.167 | [9] 0.331 | [10] -0.04 | [13] -0.018

PODXL (UniProt O00592)
inactive: [18] 0.308 | [20] 0.692

— the supplement of paper PMC10849652
